{
  "source": "PubChem BioAssay AID540303",
  "about": "(National Center for Advancing Translational Sciences (NCATS), 2011)",
  "note": "The campaign covered roughly 330,000 compounds. About 1,000 (0.3%) were called active. Inconclusive results, whose numbers are uncertain, are shown with a selection of clear calls. The call rests on the fitted dose curve; in most records, active means well fitted inhibition curve with a large enough effect; inconclusive means small, poorly fitted or top-dose-only effect; inactive means no such curve, though single readings can be large or run the other way; tested in mouse RAW 264.7 cells. A potency beside an inconclusive call is a rough fit, not a confirmed value. Potency means the concentration at half of the fitted maximal effect.",
  "data": [
    {"assay": "qHTS for Inhibitors of Cell Surface uPA Generation; further: nearly all actives have a fitted effect of over 55% in size", "details": "cell surface uPA generation assay; series mostly up to 38.3 µM", "source_text": "The overall objective of this project is to perform a quantitative high throughput screen (qHTS) to identify novel compounds that inhibit the generation of cell surface urokinase activity. The urokinase plasminogen activator (uPA) is one of the two primary endogenous systems that mediate plasminogen activation into plasmin. Members of this system, including uPA and its receptor (uPAR), are overexpressed in several malignant tumors. This system plays a major role in adhesion, migration, invasion and metastasis of cancer cells. Small molecule inhibitors of the uPA system will serve as probes to understand the molecular mechanisms of the uPA cascade and better understanding the microenvironmental circumstances that facilitate the activation of plasminogen by uPA, and finally may provide novel candidate agents for anticancer drug therapy.\n[…] […] Upon inhibition of the uPA activation cascade, the subsequent cell surface uPA activity-dependent translocation of LF into the cytoplasm is inhibited. ATP-Lite is used to measure intracellular ATP concentrations, which remain increased if LF entry into the cytoplasm is inhibited. This validation assay was performed using a small set of validation compounds.\nNIH Chemical Genomics Center [NCGC]\nNIH Molecular Libraries Probe Centers Network [MLPCN]\nAssay Submitter (PI): Thomas Bugge, National Institute of Dental and Craniofacial Research, NIH\nCultured RAW 264.7 were dispensed into 1536-well clear bottom, white walled tissue culture plates at a density of 4000 cells/well and were incubated overnight (12-16 h) at 37 C in a 5% CO2 incubator. Serially diluted compounds in 23 nl DMSO were added to cells. […] Compound and reagent-treated plates were incubated for 24 h at 37 C in a 5% CO2 incubator. Perkin Elmer ATPlitetrade mark 1 step (3 ul) was then added to each well. Luminescence was detected using a Perkin Elmer ViewLuxtrade mark plate reader.\n1.Dispensing RAW 264.7 cells into 1536-well, white walled tissue culture plates at a density of 4000 cells/well (4 uL).\n2.Incubation at 37 C in a 5% CO2 incubator overnight.\n3.Serially diluting compounds (1:5 serial dilution; 0.0024 uM to […] final concentration) in 23 nl DMSO.\n5.Incubating the compound and reagent-treated plates for 24 hours at 37 C in a 5% CO2 incubator.\n6.Adding ATP-Lite (3 ul).\n7.Reading plates by ViewLux with an exposure length of 5 seconds.", "values": [
      {"smiles": "CC(=O)Nc1ccc(NC(=O)COC(=O)C2c3ccccc3Oc3ccccc32)cc1", "Potency": "inactive"},
      {"smiles": "CCC(C(=O)Nc1ccc(S(=O)(=O)N2CCN(C)CC2)cc1)c1ccccc1", "note": "(stereo not drawn)", "Potency": "inactive"},
      {"smiles": "NC(=O)CC(NC(=O)c1ccc(Br)cc1)c1ccc(N2CCCCCC2)c([N+](=O)[O-])c1", "note": "(stereo not drawn)", "Potency": "inconclusive: 6.31 µM [inhibitor, partial curve, poor fit]"},
      {"smiles": "CCOc1ccc(Cl)cc1CNCCCSc1nc(C)cc(C)n1", "Potency": "inconclusive: 8.91 µM [inhibitor, single point]"},
      {"smiles": "O=C(CN1C(=O)c2ccc([N+](=O)[O-])cc2C1=O)Nc1cc(S(=O)(=O)N2CCOCC2)ccc1Cl", "Potency": "inconclusive: 10 µM [inhibitor, partial curve, poor fit]"},
      {"smiles": "CCOc1ccc(NC(=O)CSC2=C(C#N)C(c3ccc4c(c3)OCO4)CC(=O)N2)cc1", "note": "(stereo not drawn)", "Potency": "inactive"},
      {"smiles": "Cc1ccnc(NC(=O)c2ccc(Cl)c(S(=O)(=O)N3CCCC3)c2)c1", "Potency": "inactive"},
      {"smiles": "CC(=O)Nc1ccc(NC(=O)C(C)Sc2nc3ccccc3c(=O)n2CC2CCCO2)cc1", "note": "(stereo not drawn)", "Potency": "inactive"},
      {"smiles": "CN(C)S(=O)(=O)c1ccc(C(=O)N2CC(=O)Nc3ccc(F)cc3C2c2ccc(F)cc2)cc1", "note": "(stereo not drawn)", "Potency": "inconclusive: 2.82 µM [inhibitor, single point]"},
      {"smiles": "CSc1cccc(NC(=O)OC2CCCCCCCCCCC2)c1", "Potency": "inconclusive: 1.78 µM [inhibitor, partial curve, poor fit]"},
      {"smiles": "C[C@]12c3[nH]c4ccccc4c3CCN1C(=O)C(CC(=O)NCC13CC4CC(CC(C4)C1)C3)C[C@@H]2C(=O)N1CCCCC1", "note": "(stereo partly drawn)", "Potency": "inconclusive: 28.2 µM [inhibitor, single point]"},
      {"smiles": "COc1ccc(NC(=O)c2ccc(OCC3CCCO3)cc2)cc1Cl", "note": "(stereo not drawn)", "Potency": "inconclusive: 5.01 µM [inhibitor, partial curve, poor fit]"},
      {"smiles": "Cc1ccc(-n2ncc3c2CCCC3NC(=O)c2ocnc2C)cc1C", "note": "(stereo not drawn)", "Potency": "inconclusive: 7.94 µM [inhibitor, partial curve, poor fit]"},
      {"smiles": "O=C(Nc1ccccc1)c1c(F)c(F)c(F)c(F)c1F", "Potency": "inconclusive: 10 µM [inhibitor, partial curve, poor fit]"},
      {"smiles": "O=C(c1ccncc1)N1N=C2CCCCCC2C1(O)C(F)(F)F", "note": "(stereo not drawn)", "Potency": "inactive"},
      {"smiles": "CCN(CC)S(=O)(=O)c1ccc(C(=O)N2CCN=C2SC)cc1", "Potency": "inconclusive: 31.6 µM [inhibitor, partial curve, poor fit]"},
      {"smiles": "Cc1ccccc1C(=O)N1CCC(C(=O)Nc2ccc(C)c(S(=O)(=O)N3CCCCC3)c2)CC1", "Potency": "inconclusive: 10 µM [inhibitor, partial curve]"},
      {"smiles": "COCCOC(=O)CSc1ncccc1-c1nc2cc(C)c(C)cc2[nH]1", "Potency": "inconclusive: 4.47 µM [inhibitor, partial curve, poor fit]"},
      {"smiles": "Cc1cc(C)c2nc(NNC(=O)c3ccc(S(=O)(=O)N4CCCCC4)cc3)sc2c1", "Potency": "inconclusive: 10 µM [inhibitor, single point]"},
      {"smiles": "COCCOCCn1c(/C=C/c2ccccc2)nc2ccccc21", "Potency": "inactive"},
      {"smiles": "COC(=O)c1ccc(CSc2nc(-c3ccccc3)cs2)o1", "Potency": "inconclusive: 4.47 µM [inhibitor, partial curve, poor fit]"},
      {"smiles": "COc1ccc([C@@H]2Sc3ccccc3NC(=O)[C@@H]2O)cc1", "Potency": "inconclusive: 12.6 µM [inhibitor, single point]"},
      {"smiles": "COc1ccccc1NC1=C(N2CCCCC2)C(=O)c2ccccc2C1=O", "Potency": "inactive"},
      {"smiles": "Cc1ccc2nc(NNC(=O)c3ccc(S(=O)(=O)N4CCc5ccccc5C4)cc3)sc2c1", "Potency": "inconclusive: 2.82 µM [inhibitor, partial curve, poor fit]"},
      {"smiles": "CCOC(=O)c1sc(NC(=O)C(C)(C)C)cc1C", "Potency": "active: 11.2 µM"},
      {"smiles": "CCN(CC)CCSc1nc2c([nH]1)c(=S)n(C)c(=O)n2C", "Potency": "inactive"},
      {"smiles": "CCCCc1nnc(NC(=O)CSCc2cc(=O)n3cc(C)sc3n2)s1", "Potency": "inactive"},
      {"smiles": "Cc1ccc(-c2nc(C)sc2CC(=O)OCC(=O)Nc2ccc(F)c(Cl)c2)cc1", "Potency": "inactive"},
      {"smiles": "O=C(/C=C/Sc1ccccc1)c1ccc(Cl)cc1", "Potency": "inconclusive: 10 µM [inhibitor, single point]"},
      {"smiles": "Cc1cc(NC(=O)CSc2nnc(CNC(=O)c3cccc(C(F)(F)F)c3)o2)no1", "Potency": "inactive"},
      {"smiles": "O=C(N/N=C/C(Cl)=C/c1ccccc1)c1ccc2c(c1)OCO2", "Potency": "active: 6.31 µM"},
      {"smiles": "COc1cc(/C=N/N=C2/NC(=O)C(CC(=O)O)S2)ccc1OCc1ccc(Cl)cc1", "note": "(stereo not drawn)", "Potency": "inactive"},
      {"smiles": "COC(=O)N1C(=O)[C@@](c2ccccc2)(C(C)C)N1C(=O)OC", "Potency": "inconclusive: 8.91 µM [inhibitor, partial curve, poor fit]"},
      {"smiles": "O=C1N[C@@H](Cc2ccccc2)COC(=O)[C@H](Cc2ccc(F)cc2)CC/C=C/C[C@H]1CC(=O)N(CCO)Cc1ccccc1", "Potency": "inconclusive: 11.2 µM [inhibitor, partial curve, poor fit]"},
      {"smiles": "COc1ccccc1[C@]1(C)ON(c2ccccc2C(F)(F)F)C1=O", "Potency": "inconclusive: 5.62 µM [inhibitor, partial curve]"},
      {"smiles": "Cc1ccc(NC(=O)COC(=O)c2ccco2)cc1C", "Potency": "inactive"},
      {"smiles": "CCN1CSC(=S)N(Cc2ccc(OC)cc2)C1", "Potency": "inconclusive: 12.6 µM [inhibitor, single point]"},
      {"smiles": "Cc1ccc(C(=O)NCCN2C3=NC[C@@H](Cc4ccccc4)N3C[C@H]2Cc2ccc(O)cc2)cc1Br", "Potency": "inactive"},
      {"smiles": "COc1ccc(NC(=O)c2cc(C)cc(C)c2)cc1S(=O)(=O)N1CCCCC1", "Potency": "inactive"},
      {"smiles": "CCN(C(=O)CN1CCN(S(=O)(=O)c2ccccc2C(F)(F)F)CC1)c1c(N)n(Cc2ccccc2)c(=O)[nH]c1=O", "Potency": "inactive"},
      {"smiles": "Cc1ccc(-c2nnn(CC(=O)N(Cc3cccs3)C(C(=O)NC3CCCC3)c3ccncc3)n2)cc1", "note": "(stereo not drawn)", "Potency": "inconclusive: 4.47 µM [inhibitor, partial curve]"},
      {"smiles": "CC(C)(C)OC(=O)[C@H](Cc1ccccc1)NC(=O)c1[nH]cnc1C(=O)Nc1cccc(Cl)c1", "Potency": "inactive"},
      {"smiles": "O=C1N[C@@H](c2ccccc2)COC(=O)[C@@H](Cc2ccc(F)cc2)CC/C=C/C[C@H]1CC(=O)N(CCO)Cc1ccccc1", "Potency": "inconclusive: 28.2 µM [inhibitor, single point]"}
    ]}
  ]
}
